Results taken from PMC12785453, “Oral Fluid Concentrations and Pharmacological Effects of Clephedrone and Methylone in Humans” (International Journal of Molecular Sciences, 2025).

How the values were obtained:
healthy volunteers [1] = test: Subjective effects, visual analog scales (VAS), clephedrone study; assay type: in vivo, humans; details: time points vs baseline; 100 or 150 mg oral, n=8
Source text: (§1) The study evaluating the acute effects of clephedrone was designed as a non-controlled, prospective, observational, and naturalistic study. The procedures and evaluations included in this study have been described in previous studies evaluating other synthetic cathinones (mephedrone, methylone, alpha-PVP, NEP, HEXEN), phenethylamines (2C-B and 2C-E), or synthetic cannabinoids (JWH-122, JWH-210, UR-144).
(§2) This study consisted of one experimental session in which participants (N = 8; 6 women, 2 men) selected their oral dose of clephedrone based on their drug use experience and preferences. According to their dose selection, 3 women and 1 man ingested 100 mg of clephedrone, while the remaining 3 women and 1 man opted for a higher dose of 150 mg. […] Participants were recruited by word of mouth by the harm reduction organization Energy Control in Barcelona (Associació Benestar i Desenvolupament, ABD).
(§3) Subjective effects were evaluated with visual analog scales (VAS), the short form of the Addiction Research Center Inventory (ARCI), and the Evaluation of Subjective Effects of Substances with Abuse Potential questionnaire (VESSPA-SSE). In addition, the Sensitivity to Drug Reinforcement Questionnaire (SDRQ) and a pharmacological identification class questionnaire were used in the controlled study administering methylone. […]

healthy volunteers [2] = test: Subjective effects, VESSPA-SSE, clephedrone study; assay type: in vivo, humans; details: time points vs baseline; 100 or 150 mg oral, n=8
Source text: as §1, §2, §3

CNC(C)C(=O)c1ccc(Cl)cc1 (centres unmarked) [Clephedrone, 4-chloromethcathinone]
VAS I want to be with other people Dunnett’s Test (healthy volunteers [1]): h (“h” p < 0.05, “H” (times 0–4 h))
VESSPA S Dunnett’s Test (healthy volunteers [2]): i (“i” p < 0.05, “I” (times 0–5 h))
